Measurements: paper PMC9871967
No constants are given. Whether binding was seen depends on the method and setting. In cells and extracts the contact can be indirect. Some entries that bind do so weakly or less than the wild type. Blank lines part the entries; values can stand above or below the binder they belong to.

Sequences of proteins named here, by UniProt entry; tags and fusion partners are left off.
UniProt P22626: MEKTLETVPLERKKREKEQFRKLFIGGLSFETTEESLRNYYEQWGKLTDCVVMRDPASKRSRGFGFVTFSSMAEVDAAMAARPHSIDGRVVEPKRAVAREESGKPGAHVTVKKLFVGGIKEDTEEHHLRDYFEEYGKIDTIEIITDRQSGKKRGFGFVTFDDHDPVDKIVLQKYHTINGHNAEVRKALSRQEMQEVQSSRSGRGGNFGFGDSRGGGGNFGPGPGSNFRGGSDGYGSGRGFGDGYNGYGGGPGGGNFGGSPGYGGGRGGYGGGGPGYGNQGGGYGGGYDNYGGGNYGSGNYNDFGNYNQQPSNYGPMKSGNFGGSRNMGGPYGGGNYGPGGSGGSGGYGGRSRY

Target: heterogeneous nuclear ribonucleoprotein A2B1 (human (endogenous in HepG2.2.15, HepAD38, HepG2)) (UniProt P22626)
Assay: co-IP; HepG2.2.15, HepAD38 and HepG2 cells cultured with PAC5 (2 μmol/L) for the indicated time; lysates (RIPA buffer) immunoprecipitated with anti-hnRNPA2B1 or IgG at 4 °C overnight, protein A/G agarose; IRF3, TBK1, hnRNPA2B1 examined by western blotting

binding: binds
B1: IFN regulatory factor 3 (protein, UniProt Q14653 1-427)
chain: MGTPKPRILPWLVSQLDLGQLEGVAWVNKSRTRFRIPWKHGLRQDAQQEDFGIFQAWAEATGAYVPGRDKPDLPTWKRNFRSALNRKEGLRLAEDRSKDPHDPHKIYEFVNSGVGDFSQPDTSPDTNGGGSTSDTQEDILDELLGNMVLAPLPDPGPPSLAVAPEPCPQPLRSPSLDNPTPFPNLGPSENPLKRLLVPGEEWEFEVTAFYRGRQVFQQTISCPEGLRLVGSEVGDRTLPGWPVTLPDPGMSLTDRGVMSYVRHVLSCLGGGLALWRAGQWLWAQRLGHCHTYWAVSEELLPNSGHGPDGEVPKDKEGGVFDLGPFIVDLITFTEGSGRSPRYALWFCVGESWPQDQPWTKRLVMVKVVPTCLRALVEMARVGGASSLENTVDLHISNSHPLSLTSDQYKAYLQDLVEGMDFQGPGES

binding: binds
B2: TANK-binding kinase 1 (enzyme, UniProt Q9UHD2 1-729)
chain: MQSTSNHLWLLSDILGQGATANVFRGRHKKTGDLFAIKVFNNISFLRPVDVQMREFEVLKKLNHKNIVKLFAIEEETTTRHKVLIMEFCPCGSLYTVLEEPSNAYGLPESEFLIVLRDVVGGMNHLRENGIVHRDIKPGNIMRVIGEDGQSVYKLTDFGAARELEDDEQFVSLYGTEEYLHPDMYERAVLRKDHQKKYGATVDLWSIGVTFYHAATGSLPFRPFEGPRRNKEVMYKIITGKPSGAISGVQKAENGPIDWSGDMPVSCSLSRGLQVLLTPVLANILEADQEKCWGFDQFFAETSDILHRMVIHVFSLQQMTAHKIYIHSYNTATIFHELVYKQTKIISSNQELIYEGRRLVLEPGRLAQHFPKTTEENPIFVVSREPLNTIGLIYEKISLPKVHPRYDLDGDASMAKAITGVVCYACRIASTLLLYQELMRKGIRWLIELIKDDYNETVHKKTEVVITLDFCIRNIEKTVKVYEKLMKINLEAAELGEISDIHTKLLRLSSSQGTIETSLQDIDSRLSPGGSLADAWAHQEGTHPKDRNVEKLQVLLNCMTEIYYQFKKDKAERRLAYNEEQIHKFDKQKLYYHATKAMTHFTDECVKKYEAFLNKSEEWIRKMLHLRKQLLSLTNQCFDIEEEVSKYQEYTNELQETLPQKMFTASSGIKHTMTPIYPSSNTLVEMTLGMKKLKEEMEGVVKELAENNHILERFGSLTMDGGLRNVDCL
